Measurements taken from article PMC6982817, “Substituted N-(Pyrazin-2-yl)benzenesulfonamides; Synthesis, Anti-Infective Evaluation, Cytotoxicity, and In Silico Studies” (Molecules, 2019).
≈ marks a conversion by molar mass, not a printed value.

How the values were obtained:
[1] = test system: Candida albicans CCM 8320 (ATCC 24433); assay: Antifungal microdilution broth, C. albicans; format: cell-based; settings: 48 h, read-out: MIC against Candida albicans
[2] = test system: Aspergillus fumigatus ATCC 204305; assay: Antifungal microdilution broth, A. fumigatus; format: cell-based; settings: ATCC204305, 48 h, read-out: MIC against Aspergillus fumigatus

MIC [1]: 0.5 µg/mL (≈ 0.541 µM) | MIC [2]: 1 µg/mL (≈ 1.08 µM)
Compound: C[C@@H]1[C@H](O)[C@@H](C)/C=C/C=C/C=C/C=C/C=C/C=C/C=C/[C@H](O[C@@H]2O[C@H](C)[C@@H](O)[C@H](N)[C@@H]2O)C[C@@H]2O[C@](O)(C[C@@H](O)C[C@@H](O)[C@H](O)CC[C@@H](O)C[C@@H](O)CC(=O)O[C@H]1C)C[C@H](O)[C@H]2C(=O)O [amphotericin B]
